Measurements as given in patent EP4840855A1, “SULFONAMIDE DERIVATIVE, PREPARATION METHOD THEREFOR AND USE THEREOF” (dated 2026).
Structures were worked out from names or drawings and are uncertain.

Amino acid sequences for entries named in this document (tags omitted).
UniProt P17812, whole entry: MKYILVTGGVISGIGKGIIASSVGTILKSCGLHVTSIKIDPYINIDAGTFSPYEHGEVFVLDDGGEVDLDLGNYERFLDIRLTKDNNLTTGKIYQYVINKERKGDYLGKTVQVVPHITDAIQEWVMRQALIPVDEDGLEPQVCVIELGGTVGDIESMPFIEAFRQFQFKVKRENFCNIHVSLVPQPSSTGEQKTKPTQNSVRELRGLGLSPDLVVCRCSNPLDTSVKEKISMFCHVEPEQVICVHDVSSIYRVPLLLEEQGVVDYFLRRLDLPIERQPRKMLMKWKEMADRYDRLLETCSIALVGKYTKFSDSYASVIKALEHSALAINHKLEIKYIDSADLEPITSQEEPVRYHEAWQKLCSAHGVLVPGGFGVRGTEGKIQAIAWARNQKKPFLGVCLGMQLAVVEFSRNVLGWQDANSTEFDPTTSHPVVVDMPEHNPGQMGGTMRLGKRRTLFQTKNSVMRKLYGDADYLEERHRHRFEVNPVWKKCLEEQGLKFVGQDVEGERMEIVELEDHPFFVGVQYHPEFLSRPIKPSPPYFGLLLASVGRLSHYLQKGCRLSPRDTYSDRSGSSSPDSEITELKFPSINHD

Assays:
[1] = test system: Jurkat (Clone E6-1) cells; test: Inhibition on Jurkat cell proliferation (CellTiter-Glo cell viability); settings: 72 hours culture
Method: The following method was used to determine the effect of the compounds of the present disclosure on Jurkat cell proliferation. Jurkat (Clone E6-1) cells were purchased from the Cell Resource Center of Shanghai Institutes for Biological Sciences, Chinese Academy of Sciences, and were cultured in RPMI 1640 medium containing 10% fetal bovine serum, 100 U penicillin, and 100 µg/mL streptomycin. Cell viability was measured using a CellTiter-Glo® Luminescent Cell Viability Assay kit (Promega, catalog number G7573).
The experiment was performed according to the kit's manual, briefly summarized as follows: test compounds were first dissolved in DMSO to prepare 10 mM stock solutions, which were then diluted with medium to prepare test samples. The final concentration range of the compounds was from 10000 nM to 1.52 nM. Cells in the logarithmic growth phase were seeded into a 96-well cell culture plate at a density of 1000 cells per well, and test compounds were added. The cells were cultured in a 37°C CO2 incubator for 72 hours. After culturing, 50 µL of CellTiter-Glo detection reagent was added to each well, the plate was shaken for 5 minutes, and allowed to stand for 10 minutes. The luminescence of each well was then measured using a microplate reader in Luminescence mode. The percentage inhibition at each concentration point was calculated by comparison with the control group (0.1% DMSO). Nonlinear regression analysis of compound concentration logarithm versus inhibition rate was performed using GraphPad Prism 9 software to obtain the IC50 values of the compounds for inhibiting cell proliferation, as shown in Table 1. Table 1 IC50 Data for Inhibition on Jurkat Cell Proliferation by the Compounds of the Present Disclosure

[2] = target: human cytidine triphosphate synthase 1 (hCTPS1) (Homo sapiens, UniProt P17812); test: Inhibition on hCTPS1 enzyme activity (ADP-Glo Kinase Assay); settings: 40 nM hCTPS1, 120 µM ATP, 160 µM UTP, 60 µM GTP, 100 µM L-Glutamine, 120 minutes
Method: The following method was used to determine the degree of inhibition on human cytidine triphosphate synthase 1 (hCTPS1) enzyme activity by the compounds of the present disclosure in vitro. ADP-Glo™ Kinase Assay kit (catalog number V9102) from Promega was used in this method. The kit's manual may be referred for a detailed experimental procedure.
The experimental procedure was briefly described as follows: The reaction was performed in a buffer containing 50 mM 4-hydroxyethylpiperazineethanesulfonic acid (HEPES), 10 mM magnesium chloride, 5 mM potassium chloride, 0.01% Pluronic F127, and 4 mM dithiothreitol in a 384-well plate. First, 100 nL of gradient-diluted compound was transferred to the 384-well plate via a nanoliter acoustic liquid transfer system (manufacturer: Labcyte; catalog number: Echo 655), and 2.5 µL of buffer containing hCTPS1 was added, followed by incubation in a 25°C incubator for 10 minutes. Then 2.5 µL of buffer containing ATP and UTP was added, followed by incubation in a 25°C incubator for 10 minutes. […] Then 20 µL of Kinase Detection Reagent was added, and after 1 hour, the chemiluminescence value was recorded on a Microbeta microplate reader (manufacturer: PerkinElmer; catalog number: Envision). The percentage inhibition rates of the compounds at each concentration were calculated by comparing the chemiluminescence intensity ratio with a control group (0.1% DMSO). […]

[3] = Pharmacokinetic testing in mice (plasma concentration by LC-MS/MS); settings: ICR mice, male, Oral (10 mg/kg), fasted overnight
Method: ICR mice were used as test animals. Plasma concentrations of the test compounds at different time points were measured by LC/MS/MS after intragastrical administration of the reference compound STP-B and the compounds of the present disclosure, and the pharmacokinetic characteristics of the compounds of the present disclosure in mice were studied.
ICR mice, male, 30.8 to 38.0 g, purchased from Vital River Laboratory Animal Technology Co., Ltd.
An appropriate amount of the test compound was weighed, and an appropriate amount of DMA (N,N-dimethylacetamide), 30% Solutol HS15 (30% polyethylene glycol-15 hydroxystearate), and saline were added sequentially, mixed by ultrasonication and vortexing to prepare a 1 mg/mL dosing formulation. The ratio of DMA:30% Solutol HS15:saline was 10:10:80 (v/v/v).
ICR mice in each test compound injection group (9 mice per group) were fasted overnight and then administered intragastrically (PO, compound dose was 10 mg/kg, dosing volume was 10 mL/kg), and fed 4 hours after dosing.
About 0.1 mL of blood was collected from the orbit before dosing and at 0.25 h, 0.5 h, 1 h, 2 h, 4 h, 8 h, 10 h, and 24 h after dosing, and whole blood samples were placed in anticoagulant tubes containing EDTA-K2. […]
The content of test compounds in mouse plasma after intragastrical administration was determined by LC-MS/MS.

Compound `O=C(Nc1ccc(-c2cnn3ccc(Cl)cc23)cc1)C1(c2cc(NS(=O)(=O)C3CC3)ccn2)CC2CC2C1` (stereo not drawn) has an IC50 [1] of 12.9 nM.

For `CCOc1cncc(-c2ccc(NC(=O)C3(c4cc(NS(=O)(=O)C5CC5)ncn4)CC4CC4C3)c(OC)c2)n1` (stereo not drawn), the IC50 [1] was 4.48 nM.

In the case of `CCOc1cncc(-c2ccc(NC(=O)C3(c4nccc(NS(=O)(=O)C5CC5)n4)CC4CC4C3)c(OC)c2)n1` (stereo not drawn), the IC50 [1] is reported as 8.73 nM, the IC50 [2] is reported as 10.7 nM and the “Half-life T1/2” value [3] is reported as 2.8 h. For the same compound, the “Plasma concentration Cmax” value [3] was 28700 ng/mL.
